Source: patent US20240190950A1, “METHOD OF TREATING DISEASES USING GREMLIN1 ANTAGONISTS” (SHANGHAI JIAO TONG UNIVERSITY, priority 2021, published 2024)
No constants are given. Whether binding was seen depends on the method and setting. Some results given as binding are weak or reduced against the parent protein; the word gives no strength.

The chains behind the UniProt entries cited, without tags or fusion partners. Where a name states a change or a piece, a line headed by the entry shows the natural chain unless it says otherwise.
UniProt O60565: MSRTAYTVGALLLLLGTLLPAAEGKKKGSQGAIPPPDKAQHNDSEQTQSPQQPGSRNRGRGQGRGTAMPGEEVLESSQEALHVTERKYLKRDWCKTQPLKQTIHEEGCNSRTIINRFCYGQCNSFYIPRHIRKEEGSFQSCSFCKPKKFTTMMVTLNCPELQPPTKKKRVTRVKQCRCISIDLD
UniProt P11362: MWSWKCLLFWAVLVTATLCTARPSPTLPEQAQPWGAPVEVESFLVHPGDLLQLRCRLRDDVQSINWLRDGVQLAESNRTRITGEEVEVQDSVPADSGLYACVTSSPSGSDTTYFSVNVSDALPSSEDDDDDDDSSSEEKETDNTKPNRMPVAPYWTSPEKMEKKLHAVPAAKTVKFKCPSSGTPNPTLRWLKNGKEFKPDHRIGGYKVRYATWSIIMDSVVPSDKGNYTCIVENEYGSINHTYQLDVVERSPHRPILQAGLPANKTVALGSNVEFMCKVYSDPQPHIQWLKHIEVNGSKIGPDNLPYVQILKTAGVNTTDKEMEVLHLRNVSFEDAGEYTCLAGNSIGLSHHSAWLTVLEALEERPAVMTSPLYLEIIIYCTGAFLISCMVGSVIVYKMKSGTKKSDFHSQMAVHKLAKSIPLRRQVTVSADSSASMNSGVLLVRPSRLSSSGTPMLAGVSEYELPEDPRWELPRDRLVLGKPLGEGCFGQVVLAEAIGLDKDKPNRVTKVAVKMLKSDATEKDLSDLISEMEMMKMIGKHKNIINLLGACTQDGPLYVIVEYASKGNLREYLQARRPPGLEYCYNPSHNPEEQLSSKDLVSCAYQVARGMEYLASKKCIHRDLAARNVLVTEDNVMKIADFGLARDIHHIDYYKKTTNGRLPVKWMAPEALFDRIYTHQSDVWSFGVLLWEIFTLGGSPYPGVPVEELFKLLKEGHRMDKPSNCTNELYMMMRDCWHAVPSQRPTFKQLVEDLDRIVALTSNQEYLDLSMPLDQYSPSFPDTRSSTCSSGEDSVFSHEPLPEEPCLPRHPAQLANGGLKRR

How the values were obtained:
[1] = target: Gremlin1 (human gremlin 1, hGREM1) (human) (UniProt O60565); assay: ForteBio, Gremlin1-biotin on streptavidin sensor
[2] = target: Gremlin1 (human gremlin 1, hGREM1) (human) (UniProt O60565); assay: pull-down with purified proteins
[3] = target: Gremlin1 (human gremlin 1, hGREM1) (human) (UniProt O60565); assay: pull-down with purified Gremlin1 and soluble FGFR1 protein
[4] = target: Gremlin1 (human gremlin 1, hGREM1) (human) (UniProt O60565); assay: competitive ELISA; soluble FGFR1 as competitor of the Gremlin1-FGFR1 binding
[5] = target: Gremlin1 (human gremlin 1, hGREM1) (human) (UniProt O60565); assay: competitive ELISA: soluble FGFR1-Fc in rising concentration with Gremlin1-biotin, competing with the binding of Gremlin1 to FGFR1

binding [1] | binding [2] | binding [3] | binding [4] | binding [5] | Substance
binds |  |  |  |  | FGFR1 (protein used in the ForteBio and ELISA assays) (from UniProt P11362 22-376) (receptor)
 | binds | binds | binds | binds | soluble FGFR1 (from UniProt P11362 22-376) (receptor)
